Assay results from PubChem BioAssay AID493014 (National Center for Advancing Translational Sciences (NCATS), 2011).
Some of the results follow. The main result of the screen is listed elsewhere. These columns were measured beside it and carry no call. Most of these compounds were active or inconclusive in the main read-out, so they are no random draw. Potencies come from curve fits of mixed quality, noted in brackets.

Test: qHTS Assay to Find Inhibitors of Chronic Active B-Cell Receptor Signaling
Conditions: ABC-DLBCL IkBa-CBG/CBR reporter, luminescence ratio (green luciferase fused to IkBa over red control in TMD8 lymphoma cells), 4 h
Summary of the method: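 Concentration-response series (up to 46 uM) were applied to TMD8 dual-reporter cells for 4 h at 37C with doxycycline. Green/red ratio, after filter-overlap correction, defined %Activity; red signal alone was normalised to basal cells and zero luminescence.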

[1] = measured here: CBR red luminescence, cell number
[2] = measured here: IkBa-CBG green luminescence

With `COC(=O)c1cccc(NC(=O)NC2CCCN2S(=O)(=O)c2ccc(Cl)cc2)c1` (stereo not drawn) the AC50 [1] was 25.9 µM [falling, single point].

With `O=C(Nc1cccc(Cl)c1)c1ccc2ncsc2c1` the AC50 [1] was 22.4 µM [falling, single point].

In the case of `O=C(O)c1ccc2c(c1Sc1ccccc1)C(=O)c1ccccc1C2=O`, the AC50 [1] is reported as 17.8 µM [rising, single point].

With `CCCCCCC(=O)N(O)C1CC(=O)N(c2ccccc2)C1=O` (stereo not drawn) the AC50 [1] was 11.2 µM [falling, partial curve] and the AC50 [2] was 35.5 µM [rising, partial curve, poor fit].

In the case of `CCCC(=O)Nc1cccc(NC(=O)c2ccc(C)c([N+](=O)[O-])c2)c1`, the AC50 [1] is reported as 35.5 µM [falling, single point].

For `CCOc1ccccc1NC(=O)Nc1ccc(CC#N)cc1`, the AC50 [1] was 2.24 µM [falling, partial curve, poor fit].

With `CC(C)C(=O)Nc1nnc(NC(=S)Nc2ccccc2)s1` the AC50 [1] was 14.1 µM [falling, single point].

With `Nc1nc(CN2CCCCCC2)nc(Nc2ccccc2)n1` the AC50 [1] was 23.1 µM [falling, single point].

In the case of `O=C(N/N=C/c1ccc(-c2ccccc2[N+](=O)[O-])o1)[C@H]1C[C@@H]1c1ccccc1`, the AC50 [1] is reported as 23.1 µM [falling, partial curve].

For `CC1CCCN(c2ccc([N+](=O)[O-])cc2C(=O)c2ccccc2)C1` (stereo not drawn), the AC50 [1] was 8.2 µM [rising, single point] and the AC50 [2] was 7.31 µM [falling, partial curve].

In the case of `C=CCn1c2ccccc2c2nnc(SCCCn3c(=O)[nH]c4ccccc43)nc21`, the AC50 [1] is reported as 16.4 µM [falling, partial curve] and the AC50 [2] is reported as 18.4 µM [rising, partial curve, poor fit].

In the case of `COc1cccc(CNC(=O)c2c[nH]n3c(=O)c(Cl)c(C)nc23)c1`, the AC50 [1] is reported as 25.9 µM [falling, single point].

In the case of `Nc1ncnc2c1cnn2-c1ccccc1`, the AC50 [1] is reported as 12.6 µM [falling, partial curve, poor fit].

With `Cc1ccc(Cl)cc1N1CCN(C(=O)c2ccc3nc[nH]c3c2)CC1` the AC50 [1] was 29.1 µM [falling, partial curve, poor fit].

With `CCCCN(Cc1cc2ccccc2[nH]c1=O)S(=O)(=O)c1ccc(C)cc1` the AC50 [1] was 15.8 µM [falling, single point].

In the case of `Nc1c(-c2ccccc2)cnn1-c1ccc(C(=O)O)cc1`, the AC50 [1] is reported as 1.16 µM [falling, full curve].

With `COc1ccc([N+](=O)[O-])cc1NC(=O)C(C)Sc1nc(-c2ccccc2)cs1` (stereo not drawn) the AC50 [1] was 14.6 µM [rising, partial curve].

For `Cc1ccc(/C=C2\SC(=S)N(/N=C/c3cc([N+](=O)[O-])ccc3O)C2=O)o1`, the AC50 [1] was 35.5 µM [falling, single point].

For `O=C(Nc1cccc2c1CCCC2)C1CCN(c2nnnn2-c2ccccc2)CC1`, the AC50 [1] was 23.1 µM [rising, single point].

For `CCCCNc1c(-c2cccc(-c3cc(C(C)=O)cs3)c2)nc2cc(C)ccn12`, the AC50 [1] was 14.6 µM [falling, partial curve].

With `Cc1[nH]c(=O)[nH]c(=O)c1/C=N/NC(=O)CCCCCNC(=O)OC(C)(C)C` the AC50 [1] was 31.6 µM [rising, single point].

For `CC(C)CCNC(=S)Nc1ccc(Br)cc1`, the AC50 [1] was 0.231 µM [rising, full curve, poor fit].

For `Cc1nc(-c2ccc(NC(=O)C(C)(C)C)cc2)c(-c2ccccc2)o1`, the AC50 [1] was 7.08 µM [rising, full curve].

With `Cc1ccccc1Nc1nc(N)nc(COC(=O)CCS(=O)(=O)c2ccc(Cl)cc2)n1` the AC50 [1] was 8.2 µM [falling, partial curve].

With `O=C(/C=C/c1ccccc1)NC(NC(=S)Nc1cc(Cl)ccc1Cl)C(Cl)(Cl)Cl` (stereo not drawn) the AC50 [1] was 7.94 µM [rising, partial curve].

With `Cc1c(OCC(=O)NCCN2CCOCC2)ccc2c1oc(=O)c1ccccc12` the AC50 [1] was 0.501 µM [rising, full curve, poor fit].

For `CCCN(CCC)C(=O)CSc1nc2n[nH]c(C)c2c(=N)n1-c1ccc(OCC)cc1`, the AC50 [1] was 14.1 µM [falling, single point].

In the case of `COc1ccc(-c2cc3nc4ccccc4n3c(N)c2C#N)cc1`, the AC50 [1] is reported as 0.447 µM [rising, full curve, poor fit].

In the case of `CCN1C[C@@H]2[C@@H]3C(=O)N(Cc4ccccc4)C(=O)[C@@H]3[C@](Cc3ccccc3)(C(=O)OC)N2C1=NC1CCCCC1`, the AC50 [1] is reported as 20.6 µM [falling, partial curve, poor fit].

With `CCOCCOC(=O)c1[nH]c2c(c1C)C(=O)CC(c1cccs1)C2` (stereo not drawn) the AC50 [1] was 0.631 µM [rising, full curve, poor fit] and the AC50 [2] was 1.12 µM [falling, full curve, poor fit].

For `O=C(NC1CCCCC1)Oc1cc2oc(=O)sc2cc1Br`, the AC50 [1] was 35.5 µM [rising, single point].

In the case of `O=C(Nc1ccc(NC(=O)C2CC2)cn1)c1ccccc1`, the AC50 [1] is reported as 7.08 µM [falling, partial curve].

With `Cc1ccc(-c2nnc(-c3cccc(Br)c3)o2)cc1` the AC50 [1] was 2.59 µM [rising, partial curve, poor fit].

With `COc1ccc(N2CCN(C(=O)CCNS(=O)(=O)c3cc(Br)cnc3N)CC2)cc1` the AC50 [1] was 7.08 µM [falling, partial curve].

For `COc1ccccc1OCc1nnc(SCC(=O)Nc2nnc(C3CC3)s2)n1C`, the AC50 [1] was 3.55 µM [rising, partial curve, poor fit].

For `COC(=O)c1sccc1NC(=O)c1ccc(Cl)s1`, the AC50 [1] was 16.4 µM [falling, single point].

With `Cc1cc(C)c(NC(=O)CNC(=O)COC(=O)/C=C/c2cccs2)c(C)c1` the AC50 [1] was 2.31 µM [rising, partial curve, poor fit].

For `CCS(=O)(=O)N1CCC(C(=O)NCc2ccc(OC)cc2OC)CC1`, the AC50 [1] was 35.5 µM [rising, single point].

With `O=C(Nc1ccc(F)cc1F)C1(c2cccs2)CCOCC1` the AC50 [1] was 20 µM [falling, single point].
